Reference: article PMC5438128
These are yes or no findings as the source states them, for the method shown. Binding seen in cells or lysates may run through a third protein. Some results given as binding are weak or reduced against the parent protein; the word gives no strength. Sequences can lack the tags named with a protein.

Chains of the proteins cited; added tags and fusions are not shown.
UniProt P32121: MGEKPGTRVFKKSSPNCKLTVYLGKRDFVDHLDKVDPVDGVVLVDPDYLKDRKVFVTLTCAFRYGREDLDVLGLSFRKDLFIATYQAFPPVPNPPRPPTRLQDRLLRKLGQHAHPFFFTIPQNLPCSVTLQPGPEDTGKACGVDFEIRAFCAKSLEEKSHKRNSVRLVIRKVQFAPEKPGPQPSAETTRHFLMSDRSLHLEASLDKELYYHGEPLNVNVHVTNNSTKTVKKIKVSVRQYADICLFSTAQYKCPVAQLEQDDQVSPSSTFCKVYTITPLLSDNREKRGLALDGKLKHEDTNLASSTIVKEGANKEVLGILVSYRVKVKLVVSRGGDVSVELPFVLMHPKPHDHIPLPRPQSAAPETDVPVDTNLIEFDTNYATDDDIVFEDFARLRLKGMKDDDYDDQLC

Key:
[1] = biological target: T1, mouse free fatty acid receptor 4 with N-terminal FLAG epitope and C-terminal eYFP (mouse) (UniProt Q7TMA4); experiment: FRET or BRET; BRET in live HEK293T cells cotransfected with eYFP-tagged receptor and β-arrestin-2 Renilla luciferase plasmid (4:1); HBSS, 37°C; 2.5 µM coelenterazine h for 10 min, then FFA4 agonist (aLA, TUG-891, TUG-1197, GSK137647A or Cpd A) for 5 min; preincubation with vehicle, AH-7614, TUG-1506 or TUG-1387; ratio of 535/475 nm
T1 sequence: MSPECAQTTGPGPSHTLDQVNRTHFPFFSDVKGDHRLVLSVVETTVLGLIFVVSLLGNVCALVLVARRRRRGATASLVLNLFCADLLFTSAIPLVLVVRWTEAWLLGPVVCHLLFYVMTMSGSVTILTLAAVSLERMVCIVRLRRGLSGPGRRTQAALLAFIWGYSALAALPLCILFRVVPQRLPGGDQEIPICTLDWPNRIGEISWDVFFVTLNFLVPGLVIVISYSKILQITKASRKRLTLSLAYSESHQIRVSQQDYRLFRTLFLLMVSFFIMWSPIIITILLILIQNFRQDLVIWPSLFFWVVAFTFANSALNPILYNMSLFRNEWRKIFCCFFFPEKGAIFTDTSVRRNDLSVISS

[2] = biological target: T1, mouse free fatty acid receptor 4 with N-terminal FLAG epitope and C-terminal eYFP (mouse); experiment: condition: only with 10 µM AH-7614 (small-molecule negative allosteric modulator of FFA4); FRET or BRET; BRET in live HEK293T cells coexpressing mFFA4-eYFP and β-arrestin-2-Renilla luciferase; pretreated for 30 minutes with 10 µM AH-7614, then TUG-891, Cpd A, GSK137647A or TUG-1197

## β-arrestin-2 Renilla luciferase (from UniProt P32121 1-409)
[1]
  binding: binds
[2]
  binding: no binding
